Experimental data as given in PMC8643683, “Loss of full-length hnRNP R isoform impairs DNA damage response in motoneurons by inhibiting Yb1 recruitment to chromatin” (Nucleic Acids Research, 2021).
These are yes or no findings as the source states them, for the method shown. Binding seen in cells or lysates may run through a third protein. Here binding means that the protein was enriched with, or labelled near, the bait; the list need not be complete. Sequences can lack the tags named with a protein.

The chains behind the UniProt entries cited, without tags or fusion partners.
UniProt P67809: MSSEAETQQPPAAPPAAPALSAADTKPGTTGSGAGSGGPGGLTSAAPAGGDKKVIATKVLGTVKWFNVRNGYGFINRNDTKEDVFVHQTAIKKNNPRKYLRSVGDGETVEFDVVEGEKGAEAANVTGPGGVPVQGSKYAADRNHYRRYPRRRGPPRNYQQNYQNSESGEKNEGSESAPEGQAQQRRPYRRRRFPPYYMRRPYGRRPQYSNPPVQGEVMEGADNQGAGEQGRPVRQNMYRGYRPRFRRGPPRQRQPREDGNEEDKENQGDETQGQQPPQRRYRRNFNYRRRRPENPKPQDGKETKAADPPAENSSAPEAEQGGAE

T1: HA-tagged hnRNP R-FL (mouse) (UniProt Q8VHM5)
T1 sequence: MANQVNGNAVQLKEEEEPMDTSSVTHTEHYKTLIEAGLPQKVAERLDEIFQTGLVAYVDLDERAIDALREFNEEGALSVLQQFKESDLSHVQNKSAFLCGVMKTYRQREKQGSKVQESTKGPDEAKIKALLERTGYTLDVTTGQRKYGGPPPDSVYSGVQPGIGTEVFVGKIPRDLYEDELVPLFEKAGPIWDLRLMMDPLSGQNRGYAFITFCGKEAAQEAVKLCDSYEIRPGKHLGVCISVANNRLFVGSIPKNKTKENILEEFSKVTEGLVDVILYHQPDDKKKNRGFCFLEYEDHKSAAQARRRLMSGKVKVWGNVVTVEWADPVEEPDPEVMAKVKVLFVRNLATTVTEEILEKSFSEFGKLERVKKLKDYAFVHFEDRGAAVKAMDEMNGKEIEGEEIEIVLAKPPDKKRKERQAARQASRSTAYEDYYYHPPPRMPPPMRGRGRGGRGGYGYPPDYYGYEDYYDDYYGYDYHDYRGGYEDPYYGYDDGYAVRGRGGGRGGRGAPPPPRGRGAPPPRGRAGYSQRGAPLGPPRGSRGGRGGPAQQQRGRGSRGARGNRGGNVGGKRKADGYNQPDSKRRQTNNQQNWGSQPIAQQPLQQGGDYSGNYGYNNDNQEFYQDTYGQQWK


Columns and labels:
[1] = biological target: T1, HA-tagged hnRNP R-FL (mouse); assay: affinity purification with mass spectrometry; #2 IP-MS: anti-HA magnetic beads, lysates of HEK293TN cells expressing hnRNP R-FL-HA, hnRNP R-ΔN-HA or EGFP-HA; lysis in the absence or presence of Benzonase (the sentence does not tell which)
[2] = biological target: T1, HA-tagged hnRNP R-FL (mouse); assay: affinity purification with mass spectrometry; #2 IP-MS: anti-HA magnetic beads, lysates of HEK293TN cells expressing hnRNP R-FL-HA, hnRNP R-ΔN-HA or EGFP-HA, 0 Gy or 9 Gy, in the absence of Benzonase

Row | binding [1] | binding [2] | Molecule
1 | binds | – | Y-box binding protein 1 (Yb1), endogenous in HEK293TN cells (from UniProt P67809 1-324)
2 | – | binds | Khsrp (protein, UniProt Q92945 1-711) MSDYSTGGPPPGPPPPAGGGGGAGGAGGGPPPGPPGAGDRGGGGPGGGGPGGGSAGGPSQPPGGGGPGIRKDAFADAVQRARQIAAKIGGDAATTVNNSTPDFGFGGQKRQLEDGDQPESKKLASQGDSISSQLGPIHPPPRTSMTEEYRVPDGMVGLIIGRGGEQINKIQQDSGCKVQISPDSGGLPERSVSLTGAPESVQKAKMMLDDIVSRGRGGPPGQFHDNANGGQNGTVQEIMIPAGKAGLVIGKGGETIKQLQERAGVKMILIQDGSQNTNVDKPLRIIGDPYKVQQACEMVMDILRERDQGGFGDRNEYGSRIGGGIDVPVPRHSVGVVIGRSGEMIKKIQNDAGVRIQFKQDDGTGPEKIAHIMGPPDRCEHAARIINDLLQSLRSGPPGPPGGPGMPPGGRGRGRGQGNWGPPGGEMTFSIPTHKCGLVIGRGGENVKAINQQTGAFVEISRQLPPNGDPNFKLFIIRGSPQQIDHAKQLIEEKIEGPLCPVGPGPGGPGPAGPMGPFNPGPFNQGPPGAPPHAGGPPPHQYPPQGWGNTYPQWQPPAPHDPSKAAAAAADPNAAWAAYYSHYYQQPPGPVPGPAPAPAAPPAQGEPPQPPPTGQSDYTKAWEEYYKKIGQQPQQPGAPPQQDYTKAWEEYYKKQAQVATGGGPGAPPGSQPDYSAAWAEYYRQQAAYYGQTPGPGGPQPPPTQQGQQQAQ
3 | – | binds | LARP7 (protein, UniProt Q4G0J3 1-582) METESGNQEKVMEEESTEKKKEVEKKKRSRVKQVLADIAKQVDFWFGDANLHKDRFLREQIEKSRDGYVDISLLVSFNKMKKLTTDGKLIARALRSSAVVELDLEGTRIRRKKPLGERPKDEDERTVYVELLPKNVNHSWIERVFGKCGNVVYISIPHYKSTGDPKGFAFVEFETKEQAAKAIEFLNNPPEEAPRKPGIFPKTVKNKPIPALRVVEEKKKKKKKKGRMKKEDNIQAKEENMDTSNTSISKMKRSRPTSEGSDIESTEPQKQCSKKKKKRDRVEASSLPEVRTGKRKRSSSEDAESLAPRSKVKKIIQKDIIKEASEASKENRDIEISTEEEKDTGDLKDSSLLKTKRKHKKKHKERHKMGEEVIPLRVLSKSEWMDLKKEYLALQKASMASLKKTISQIKSESEMETDSGVPQNTGMKNEKTANREECRTQEKVNATGPQFVSGVIVKIISTEPLPGRKQVRDTLAAISEVLYVDLLEGDTECHARFKTPEDAQAVINAYTEINKKHCWKLEILSGDHEQRYWQKILVDRQAKLNQPREKKRGTEKLITKAEKIRLAKTQQASKHIRFSEYD
